Measurements: publication PMC5582827
These are yes or no findings as the source states them, for the method shown. In cells and extracts the contact can be indirect. Here binding means that the protein was enriched with, or labelled near, the bait; the list need not be complete. Sequences can lack the tags named with a protein.

Target: T1, FLAG-RNF157 full length (RING finger protein 157), wild type (human) (UniProt Q96PX1)
T1 sequence: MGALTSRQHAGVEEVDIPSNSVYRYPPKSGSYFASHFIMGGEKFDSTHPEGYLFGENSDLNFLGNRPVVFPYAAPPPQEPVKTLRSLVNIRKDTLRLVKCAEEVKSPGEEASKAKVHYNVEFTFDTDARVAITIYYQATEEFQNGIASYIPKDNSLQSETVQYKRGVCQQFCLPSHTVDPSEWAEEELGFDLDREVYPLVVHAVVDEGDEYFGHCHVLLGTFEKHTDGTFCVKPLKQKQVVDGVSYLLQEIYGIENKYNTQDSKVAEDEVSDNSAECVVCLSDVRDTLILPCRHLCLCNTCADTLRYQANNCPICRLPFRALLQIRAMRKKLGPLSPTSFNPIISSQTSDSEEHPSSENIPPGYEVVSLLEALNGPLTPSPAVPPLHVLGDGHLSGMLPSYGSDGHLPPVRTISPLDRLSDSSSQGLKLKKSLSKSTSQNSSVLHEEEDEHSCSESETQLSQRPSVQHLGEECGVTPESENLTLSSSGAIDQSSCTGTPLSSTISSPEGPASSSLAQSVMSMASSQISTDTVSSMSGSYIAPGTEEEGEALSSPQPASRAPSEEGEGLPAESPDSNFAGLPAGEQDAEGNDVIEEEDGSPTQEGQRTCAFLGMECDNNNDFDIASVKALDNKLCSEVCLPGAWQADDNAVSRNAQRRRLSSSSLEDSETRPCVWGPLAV
Assay: affinity purification with mass spectrometry; 624MEL and A2058 cells expressing FLAG-RNF157 or FLAG-GFP; anti-FLAG M2 beads, high-salt (420 mM NaCl) and low-salt (300 mM NaCl) washes, elution with 3x FLAG peptide, SDS-PAGE, trypsin, LTQ-Orbitrap

binding: binds
Substance: RM19 (mitochondrial ribosomal protein) (human (endogenous in 624MEL and A2058))
